According to the supplement of paper PMC10849652:
The list shows a part of the results.

Chains of the proteins cited; added tags and fusions are not shown. Lines headed by an entry give the natural chain unless they say otherwise; changes in a name come on top.
UniProt O15498: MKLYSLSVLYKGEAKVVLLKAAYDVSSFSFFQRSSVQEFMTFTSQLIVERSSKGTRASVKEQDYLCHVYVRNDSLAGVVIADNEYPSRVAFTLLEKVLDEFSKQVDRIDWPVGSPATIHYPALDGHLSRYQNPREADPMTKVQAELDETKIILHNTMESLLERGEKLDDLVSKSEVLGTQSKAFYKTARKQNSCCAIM
UniProt P62699: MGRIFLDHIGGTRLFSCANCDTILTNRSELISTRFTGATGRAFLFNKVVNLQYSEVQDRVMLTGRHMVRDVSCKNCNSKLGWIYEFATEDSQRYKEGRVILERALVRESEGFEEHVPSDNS
UniProt Q8IY57: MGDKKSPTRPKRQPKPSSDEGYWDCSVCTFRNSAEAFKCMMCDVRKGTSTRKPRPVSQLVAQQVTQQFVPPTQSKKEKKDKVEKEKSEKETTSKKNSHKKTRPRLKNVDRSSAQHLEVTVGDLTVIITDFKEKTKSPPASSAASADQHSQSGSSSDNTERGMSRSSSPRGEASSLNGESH
UniProt Q13426: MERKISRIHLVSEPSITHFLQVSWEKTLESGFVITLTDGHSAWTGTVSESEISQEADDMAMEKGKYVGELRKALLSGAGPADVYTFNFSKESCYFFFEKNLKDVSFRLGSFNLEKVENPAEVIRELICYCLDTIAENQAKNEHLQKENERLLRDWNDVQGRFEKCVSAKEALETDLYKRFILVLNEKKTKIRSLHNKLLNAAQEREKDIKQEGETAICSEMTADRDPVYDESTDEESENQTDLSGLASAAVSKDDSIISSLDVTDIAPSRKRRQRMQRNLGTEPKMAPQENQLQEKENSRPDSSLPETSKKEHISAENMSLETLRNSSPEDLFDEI
UniProt Q8IZH2: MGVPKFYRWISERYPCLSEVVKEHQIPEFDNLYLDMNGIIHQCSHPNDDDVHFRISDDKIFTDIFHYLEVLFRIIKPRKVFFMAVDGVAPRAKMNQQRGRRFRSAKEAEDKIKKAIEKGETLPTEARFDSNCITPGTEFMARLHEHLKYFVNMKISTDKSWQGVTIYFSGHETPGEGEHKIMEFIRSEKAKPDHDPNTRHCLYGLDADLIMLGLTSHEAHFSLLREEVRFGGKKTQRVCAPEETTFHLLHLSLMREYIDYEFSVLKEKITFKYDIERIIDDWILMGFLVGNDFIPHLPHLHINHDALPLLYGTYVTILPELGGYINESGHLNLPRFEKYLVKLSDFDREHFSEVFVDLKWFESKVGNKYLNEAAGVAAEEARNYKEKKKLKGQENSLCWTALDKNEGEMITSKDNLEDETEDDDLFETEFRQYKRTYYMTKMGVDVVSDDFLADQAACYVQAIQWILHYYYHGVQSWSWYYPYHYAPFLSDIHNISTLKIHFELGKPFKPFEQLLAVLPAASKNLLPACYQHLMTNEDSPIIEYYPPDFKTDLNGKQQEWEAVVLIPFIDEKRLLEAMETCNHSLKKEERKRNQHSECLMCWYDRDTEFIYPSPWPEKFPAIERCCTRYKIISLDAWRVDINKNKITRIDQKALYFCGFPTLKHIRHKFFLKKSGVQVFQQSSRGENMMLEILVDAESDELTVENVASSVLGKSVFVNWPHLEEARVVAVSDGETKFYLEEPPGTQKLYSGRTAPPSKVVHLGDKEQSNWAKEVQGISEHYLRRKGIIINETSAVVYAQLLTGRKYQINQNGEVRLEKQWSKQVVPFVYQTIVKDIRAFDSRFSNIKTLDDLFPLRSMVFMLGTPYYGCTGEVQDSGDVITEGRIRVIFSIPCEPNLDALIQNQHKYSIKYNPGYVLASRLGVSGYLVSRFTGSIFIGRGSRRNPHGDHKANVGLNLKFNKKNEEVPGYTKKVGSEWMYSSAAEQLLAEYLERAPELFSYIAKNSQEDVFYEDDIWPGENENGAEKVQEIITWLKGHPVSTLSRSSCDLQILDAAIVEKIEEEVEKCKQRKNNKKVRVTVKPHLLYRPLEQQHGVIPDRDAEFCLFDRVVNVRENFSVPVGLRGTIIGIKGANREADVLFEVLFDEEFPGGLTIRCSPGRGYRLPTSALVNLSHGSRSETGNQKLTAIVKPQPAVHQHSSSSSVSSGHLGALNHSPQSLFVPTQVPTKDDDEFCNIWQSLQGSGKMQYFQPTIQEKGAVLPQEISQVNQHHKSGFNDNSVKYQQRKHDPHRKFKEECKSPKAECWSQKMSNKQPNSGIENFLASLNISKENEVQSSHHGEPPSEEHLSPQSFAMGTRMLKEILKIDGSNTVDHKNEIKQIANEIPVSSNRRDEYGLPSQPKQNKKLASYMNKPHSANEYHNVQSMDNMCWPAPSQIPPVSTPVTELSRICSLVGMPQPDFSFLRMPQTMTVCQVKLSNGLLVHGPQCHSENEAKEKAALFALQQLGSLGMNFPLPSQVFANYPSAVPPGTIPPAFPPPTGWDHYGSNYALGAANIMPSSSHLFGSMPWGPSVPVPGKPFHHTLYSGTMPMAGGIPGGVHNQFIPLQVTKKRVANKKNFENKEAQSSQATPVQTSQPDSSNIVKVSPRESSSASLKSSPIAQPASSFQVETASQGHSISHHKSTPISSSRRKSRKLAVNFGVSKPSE
UniProt Q9UBH6: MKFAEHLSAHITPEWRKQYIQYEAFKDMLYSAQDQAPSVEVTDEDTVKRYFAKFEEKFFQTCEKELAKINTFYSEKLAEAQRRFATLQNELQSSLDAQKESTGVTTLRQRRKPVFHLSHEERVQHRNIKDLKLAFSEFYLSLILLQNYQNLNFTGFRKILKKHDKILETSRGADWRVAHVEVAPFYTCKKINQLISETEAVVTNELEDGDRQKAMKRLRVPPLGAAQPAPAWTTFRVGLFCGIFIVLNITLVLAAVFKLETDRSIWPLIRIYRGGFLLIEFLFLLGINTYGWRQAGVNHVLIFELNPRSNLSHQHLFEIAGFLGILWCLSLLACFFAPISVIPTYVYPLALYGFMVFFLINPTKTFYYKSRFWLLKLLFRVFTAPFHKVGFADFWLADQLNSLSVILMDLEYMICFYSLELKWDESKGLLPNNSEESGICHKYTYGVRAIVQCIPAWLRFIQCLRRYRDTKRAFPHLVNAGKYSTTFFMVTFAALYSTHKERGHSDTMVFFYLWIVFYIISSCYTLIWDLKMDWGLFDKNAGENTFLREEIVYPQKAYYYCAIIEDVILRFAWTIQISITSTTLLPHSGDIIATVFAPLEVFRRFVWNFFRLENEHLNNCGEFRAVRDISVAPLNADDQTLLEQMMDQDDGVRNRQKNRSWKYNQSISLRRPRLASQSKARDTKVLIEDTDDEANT
UniProt Q5W0Z9: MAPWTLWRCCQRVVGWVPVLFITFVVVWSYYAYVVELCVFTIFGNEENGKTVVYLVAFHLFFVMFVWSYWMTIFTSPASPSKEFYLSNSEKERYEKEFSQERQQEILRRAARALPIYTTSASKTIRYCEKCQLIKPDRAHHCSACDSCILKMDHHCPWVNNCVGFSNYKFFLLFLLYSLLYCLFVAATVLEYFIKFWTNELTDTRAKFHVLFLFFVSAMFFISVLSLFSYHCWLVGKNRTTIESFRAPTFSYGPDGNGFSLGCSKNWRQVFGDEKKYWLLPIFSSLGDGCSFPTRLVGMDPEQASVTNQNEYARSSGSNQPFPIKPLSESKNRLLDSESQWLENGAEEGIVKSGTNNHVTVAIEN
UniProt Q6PJT7: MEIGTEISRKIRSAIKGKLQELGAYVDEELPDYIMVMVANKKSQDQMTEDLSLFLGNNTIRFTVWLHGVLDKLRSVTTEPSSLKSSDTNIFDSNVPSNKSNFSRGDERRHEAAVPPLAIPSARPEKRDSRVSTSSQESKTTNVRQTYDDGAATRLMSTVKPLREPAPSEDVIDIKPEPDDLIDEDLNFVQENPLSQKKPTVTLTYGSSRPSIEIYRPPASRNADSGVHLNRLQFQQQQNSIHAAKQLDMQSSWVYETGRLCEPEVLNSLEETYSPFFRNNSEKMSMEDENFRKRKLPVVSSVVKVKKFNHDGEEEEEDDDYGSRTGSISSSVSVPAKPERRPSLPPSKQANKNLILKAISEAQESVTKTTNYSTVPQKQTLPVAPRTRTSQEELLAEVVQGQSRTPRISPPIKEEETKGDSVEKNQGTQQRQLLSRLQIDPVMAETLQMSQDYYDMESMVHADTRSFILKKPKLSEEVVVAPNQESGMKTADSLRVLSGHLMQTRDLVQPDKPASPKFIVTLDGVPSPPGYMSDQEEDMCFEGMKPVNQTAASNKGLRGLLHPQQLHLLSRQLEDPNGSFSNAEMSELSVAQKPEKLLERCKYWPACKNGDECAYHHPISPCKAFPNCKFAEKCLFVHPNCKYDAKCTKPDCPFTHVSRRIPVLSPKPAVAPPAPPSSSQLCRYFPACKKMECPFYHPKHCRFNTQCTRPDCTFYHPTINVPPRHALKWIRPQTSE
UniProt Q9Y2Z4: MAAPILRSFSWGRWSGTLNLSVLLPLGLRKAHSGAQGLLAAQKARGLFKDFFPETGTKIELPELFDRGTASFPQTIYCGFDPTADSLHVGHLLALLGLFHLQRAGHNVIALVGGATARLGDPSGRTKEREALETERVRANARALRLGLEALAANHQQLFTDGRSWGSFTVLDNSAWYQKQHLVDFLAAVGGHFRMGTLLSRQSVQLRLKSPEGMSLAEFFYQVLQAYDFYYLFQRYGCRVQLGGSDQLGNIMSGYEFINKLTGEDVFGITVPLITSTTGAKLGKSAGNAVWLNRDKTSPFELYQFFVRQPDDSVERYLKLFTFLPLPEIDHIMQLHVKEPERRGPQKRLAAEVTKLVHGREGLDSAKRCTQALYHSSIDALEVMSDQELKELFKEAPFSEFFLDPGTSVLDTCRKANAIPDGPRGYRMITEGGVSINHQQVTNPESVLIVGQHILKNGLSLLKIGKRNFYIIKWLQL
UniProt Q7Z739: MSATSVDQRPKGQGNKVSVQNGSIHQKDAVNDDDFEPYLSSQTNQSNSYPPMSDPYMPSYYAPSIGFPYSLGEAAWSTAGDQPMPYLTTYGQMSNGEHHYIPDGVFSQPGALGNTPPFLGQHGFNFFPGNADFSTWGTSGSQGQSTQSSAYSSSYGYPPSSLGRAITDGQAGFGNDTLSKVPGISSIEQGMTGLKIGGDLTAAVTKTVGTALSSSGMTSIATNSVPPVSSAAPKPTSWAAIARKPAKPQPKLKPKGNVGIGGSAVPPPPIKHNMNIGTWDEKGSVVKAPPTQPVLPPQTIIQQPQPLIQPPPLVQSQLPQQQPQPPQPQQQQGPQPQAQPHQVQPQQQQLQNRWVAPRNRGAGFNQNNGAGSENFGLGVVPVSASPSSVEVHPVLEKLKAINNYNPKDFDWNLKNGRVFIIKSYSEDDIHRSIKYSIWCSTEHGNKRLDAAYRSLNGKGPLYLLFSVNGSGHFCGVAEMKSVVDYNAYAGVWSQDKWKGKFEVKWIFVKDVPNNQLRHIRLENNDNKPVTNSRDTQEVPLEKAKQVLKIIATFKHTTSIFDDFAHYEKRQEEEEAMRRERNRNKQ
UniProt Q9ULJ3: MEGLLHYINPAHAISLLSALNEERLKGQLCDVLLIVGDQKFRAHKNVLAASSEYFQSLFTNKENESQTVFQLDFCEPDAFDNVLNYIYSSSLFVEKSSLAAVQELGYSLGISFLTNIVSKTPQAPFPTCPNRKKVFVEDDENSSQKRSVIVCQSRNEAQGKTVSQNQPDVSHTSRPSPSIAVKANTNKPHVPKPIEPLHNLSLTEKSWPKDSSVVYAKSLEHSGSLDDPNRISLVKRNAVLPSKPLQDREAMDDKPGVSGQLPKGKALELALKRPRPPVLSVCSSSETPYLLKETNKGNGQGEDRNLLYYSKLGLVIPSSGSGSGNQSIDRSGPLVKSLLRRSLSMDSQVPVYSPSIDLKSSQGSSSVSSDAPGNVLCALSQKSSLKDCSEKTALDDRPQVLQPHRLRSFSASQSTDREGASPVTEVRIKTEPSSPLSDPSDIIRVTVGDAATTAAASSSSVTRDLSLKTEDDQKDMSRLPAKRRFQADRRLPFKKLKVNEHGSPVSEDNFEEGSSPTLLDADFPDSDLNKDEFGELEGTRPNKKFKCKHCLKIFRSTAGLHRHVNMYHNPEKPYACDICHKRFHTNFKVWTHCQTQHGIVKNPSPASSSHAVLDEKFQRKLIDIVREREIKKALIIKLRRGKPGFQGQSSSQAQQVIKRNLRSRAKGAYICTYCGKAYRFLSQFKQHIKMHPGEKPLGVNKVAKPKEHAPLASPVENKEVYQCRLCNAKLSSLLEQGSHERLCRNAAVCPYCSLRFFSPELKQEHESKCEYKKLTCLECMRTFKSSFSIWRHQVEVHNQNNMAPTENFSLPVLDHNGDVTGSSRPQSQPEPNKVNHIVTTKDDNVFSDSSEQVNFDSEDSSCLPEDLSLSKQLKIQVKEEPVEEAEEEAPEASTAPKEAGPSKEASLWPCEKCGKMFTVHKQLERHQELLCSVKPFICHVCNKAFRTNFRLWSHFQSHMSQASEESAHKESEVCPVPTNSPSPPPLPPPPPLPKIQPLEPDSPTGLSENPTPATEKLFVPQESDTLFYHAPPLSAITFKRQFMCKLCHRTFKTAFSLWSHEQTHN

Each target was assayed with Cc1ccc(NC(=O)c2ccc(CN3CC[C@H](N(C)C)C3)c(C(F)(F)F)c2)cc1Nc1nccc(-c2cncnc2)n1 [bafetinib] (assay: log2 fold change, soluble protein after heating vs DMSO (PISA); higher = thermal stabilisation; K562 lysate, 10 uM; active = over 0.2 and 3.5 SD of the protein, either way, in both replicates (recomputed)).
In short: (§1)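 To prepare the extract, K562 pellets were dounce-homogenised in PBS pH 7.4 with 1 mM MgCl2, giving crude material at 1 mg/mL protein. This was treated with 10 μM compound for 30 min, then heated in aliquots for 3 min over 48°C-58°C before pooling and addition of NP-40 to 0.5% at 4°C. Centrifugation at 21,000xg for 90 min left soluble protein in the supernatant, which TMTpro 16plex LC-MS/MS quantified with equalised channel sums. Results are log-two fold changes in thermal stability compared with solvent controls, from duplicates.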

log2 fold change, inactive:
YKT6 (UniProt O15498) 0.018, ZFC3H1 (UniProt O60293) 0.003, ZBTB24 (UniProt O43167) 0.034, XYLB (UniProt O75191) -0.132, XPO7 (UniProt Q9UIA9) -0.036, XRCC1 (UniProt P18887) 0.001, YPEL5 (UniProt P62699) -0.052, YOD1 (UniProt Q5VVQ6) -0.062, ZBTB10 (UniProt Q96DT7) 0.093, YBX3 (UniProt P16989) 0.053, YAF2 isoform 5 (UniProt Q8IY57) 0.043, XRCC4 (UniProt Q13426) -0.028, ZFAND3 (UniProt Q9H8U3) 0.093, ZBTB8OS (UniProt Q8IWT0) -0.06, XRN1 (UniProt Q8IZH2) 0, ZFYVE21 isoform 2 (UniProt Q9BQ24) 0.064, ZCCHC17 (UniProt Q9NP64) 0.008, YIPF4 (UniProt Q9BSR8) -0.031, XPR1 (UniProt Q9UBH6) -0.024, YWHAQ (UniProt P27348) -0.043, ZDHHC20 (UniProt Q5W0Z9) -0.036, YTHDF1 (UniProt Q9BYJ9) 0.007, ZDHHC5 (UniProt Q9C0B5) -0.028, YIF1B (UniProt Q5BJH7) -0.011, ZC3H14 (UniProt Q6PJT7) -0.015, YLPM1 (UniProt P49750) -0.09, ZBED1 (UniProt O96006) 0.068, ZFYVE9 (UniProt O95405) -0.022, YARS2 (UniProt Q9Y2Z4) 0.083, YWHAH (UniProt Q04917) 0.063, ZC3H8 (UniProt Q8N5P1) -0.043, XPO6 (UniProt Q96QU8) -0.105, XRCC5 (UniProt P13010) -0.022, ZCCHC3 (UniProt Q9NUD5) 0.022, YTHDF3 (UniProt Q7Z739) -0.073, YME1L1 (UniProt Q96TA2) -0.024, ZC3H13 (UniProt Q5T200) 0.017, ZBTB21 (UniProt Q9ULJ3) -0.005

What follows are targets tested with Cc1cccc(CC(=O)N2CCc3c2ccc(-c2cn(C)c4ncnc(N)c24)c3F)n1 in the same assay as above.
In short: as §1

log2 fold change, inactive:
YKT6 (UniProt O15498) -0.105, ZFC3H1 (UniProt O60293) 0.019, ZBTB24 (UniProt O43167) 0.002, XYLB (UniProt O75191) -0.06, XPO7 (UniProt Q9UIA9) 0.077, XRCC1 (UniProt P18887) -0.059, YPEL5 (UniProt P62699) -0.062, YOD1 (UniProt Q5VVQ6) 0.021, ZBTB10 (UniProt Q96DT7) 0.189, YBX3 (UniProt P16989) -0.045, YAF2 isoform 5 (UniProt Q8IY57) -0.224, XRCC4 (UniProt Q13426) 0.038, ZFAND3 (UniProt Q9H8U3) -0.058, ZBTB8OS (UniProt Q8IWT0) 0.023, XRN1 (UniProt Q8IZH2) 0.1, ZFYVE21 isoform 2 (UniProt Q9BQ24) 0.047, ZCCHC17 (UniProt Q9NP64) -0.06, YIPF4 (UniProt Q9BSR8) 0.051, XPR1 (UniProt Q9UBH6) -0.022, YWHAQ (UniProt P27348) -0.095, ZDHHC20 (UniProt Q5W0Z9) 0, YTHDF1 (UniProt Q9BYJ9) 0.093, ZDHHC5 (UniProt Q9C0B5) -0.011, YIF1B (UniProt Q5BJH7) 0.026, ZC3H14 (UniProt Q6PJT7) 0.044, YLPM1 (UniProt P49750) -0.054, ZBED1 (UniProt O96006) -0.013, ZFYVE9 (UniProt O95405) 0.019, YARS2 (UniProt Q9Y2Z4) 0.01, YWHAH (UniProt Q04917) -0.094, ZC3H8 (UniProt Q8N5P1) -0.041, XPO6 (UniProt Q96QU8) 0.175, XRCC5 (UniProt P13010) -0.015, ZCCHC3 (UniProt Q9NUD5) 0.057, YTHDF3 (UniProt Q7Z739) 0.097, YME1L1 (UniProt Q96TA2) 0.055, ZC3H13 (UniProt Q5T200) 0.102, ZBTB21 (UniProt Q9ULJ3) 0.1
